# Measurements reported in PubChem BioAssay AID720522 (National Center for Advancing Translational Sciences (NCATS), 2013).
# Amino acid sequences for entries named in this document (tags omitted).
# UniProt P08659, whole entry, looked up: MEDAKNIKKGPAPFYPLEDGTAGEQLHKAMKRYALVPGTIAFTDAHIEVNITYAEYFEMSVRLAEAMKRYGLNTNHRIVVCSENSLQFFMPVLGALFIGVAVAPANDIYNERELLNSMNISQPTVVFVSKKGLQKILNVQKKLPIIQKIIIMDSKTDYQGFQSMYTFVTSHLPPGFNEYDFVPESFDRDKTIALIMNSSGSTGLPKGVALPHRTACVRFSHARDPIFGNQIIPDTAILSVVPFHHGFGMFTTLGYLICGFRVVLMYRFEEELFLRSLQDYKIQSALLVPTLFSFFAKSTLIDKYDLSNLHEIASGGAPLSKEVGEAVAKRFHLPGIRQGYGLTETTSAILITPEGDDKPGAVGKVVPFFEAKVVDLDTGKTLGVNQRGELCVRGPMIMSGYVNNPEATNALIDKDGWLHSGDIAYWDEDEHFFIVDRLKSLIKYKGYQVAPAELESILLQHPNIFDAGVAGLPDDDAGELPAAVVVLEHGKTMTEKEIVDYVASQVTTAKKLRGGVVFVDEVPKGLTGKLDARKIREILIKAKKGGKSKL
# Screen size: about 1,400 compounds; about 60 (4%) were called active. This list was built around the results that the source calls inconclusive (neither active nor inactive); the mix of calls is not that of the screen. The call rests on the fitted dose curve; in most records, active means well fitted inhibition curve with a large enough effect; inconclusive means small, poorly fitted or top-dose-only effect; inactive means flat fitted curve, though single readings scatter. Potencies of inconclusive entries are doubtful fits and often do not repeat.
# Target: Luciferin 4-monooxygenase (Photinus pyralis) (UniProt P08659)
# Experiment: Nrf2 qHTS screen for inhibitors: Purified Fluc Biochemical Counterscreen for Hit Validation; further: nearly all actives have a fitted effect of over 65% in size
# Settings: purified firefly luciferase, luminescence inhibition; series mostly up to 57.5 µM; activity change, negative = inhibition: at the top concentration
# In short: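 Substrate solution (Tris-acetate, 13.3 mM Mg-acetate, 0.01 mM ATP, 0.01 mM D-luciferin, 0.01% Tween, 0.05% BSA) is dispensed, compounds are pinned in, and luciferase reagent at 0.04 uM is added. Light output is measured following 10 min incubation at room temperature.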
# On the % scale 0 is the no-effect control and ±100 the full control effect; potency means the concentration at half of the fitted maximal effect.
SMILES,Potency,"activity change, negative = inhibition"
Cc1cc(C(=O)CN2C(=O)c3ccccc3S2(=O)=O)c(C)n1C(C)C,active: 6.75 µM,
CC(=O)c1c(C)[nH]c(C(=O)OCC(=O)Nc2ccccc2Cl)c1C,,inactive: -24.1%
Cc1ccc(NC(=O)CN2C(=O)c3cccnc3Sc3ccccc32)cc1C,"inconclusive: 19 µM [inhibitor, partial curve]",
O=C(Nc1ccc(-c2nc3ccccc3s2)cc1)c1cc(-n2cnnc2)ccc1Cl,"inconclusive: 15.1 µM [inhibitor, partial curve]",
COc1ccc(NS(=O)(=O)c2ccc(NC(=O)c3ccc(N(C)S(C)(=O)=O)cc3)cc2)c(OC)c1,,inactive: -9.39%
Cc1c(C(=O)Nc2ccc3c(c2)OCCO3)sc2nc(-c3ccccc3)cn12,"inconclusive: 19 µM [inhibitor, partial curve]",
Clc1ccc(/C=C/c2ccnc3ccccc23)c(Cl)c1,"inconclusive: 16.9 µM [inhibitor, partial curve]",
Nc1ccc(/C=C/c2nccc3ccccc23)cc1,active: 2.69 µM,
CSC1SCC2C(=O)N(C)C(C(C)C)C(=O)OCC(NC(=O)c3cnc4ccccc4n3)C(=O)NC(C)C(=O)N(C)C1C(=O)N(C)C(C(C)C)C(=O)OCC(NC(=O)c1cnc3ccccc3n1)C(=O)NC(C)C(=O)N2C (stereo not given),"inconclusive: 13.5 µM [inhibitor, partial curve]",
CC1=[N+](C)c2c(ccc3cccnc23)C1(C)C,,inactive: -7.8%
Nc1c(S(=O)(=O)c2ccccc2)c2nc3ccccc3nc2n1/N=C/c1ccco1,"inconclusive: 21.3 µM [inhibitor, partial curve]",
O=C(COC(=O)c1ccc[nH]c1=O)Nc1ccc(N2CCCCC2)cc1,active: 10.7 µM,
CN(c1ccccc1)c1nc(C#N)nc(N2CCOCC2)n1,,inactive: -23.4%
O=C(Nc1cccc(S(=O)(=O)Nc2ccc(Cl)cc2)c1)c1ccccn1,,inactive: -8.59%
Brc1c(CSc2nncc3ccccc23)nc2ccccn12,"inconclusive: 16.9 µM [inhibitor, partial curve]",
COc1cccc(CN(C)C(=O)c2cc(COc3ccc4ncccc4c3)on2)c1,,inactive: -8.3%
COc1ccc(C(=O)Nc2ccc(Cl)c(S(=O)(=O)N3CCOCC3)c2)cc1,active: 21.3 µM,
Cc1ccc(S(=O)(=O)N2CCc3ccccc3CC2)cc1,,inactive: 2.76%
CC(=O)c1ccc(N2CCN(S(=O)(=O)c3ccc4c(c3)CC(C)N4C(C)=O)CC2)cc1 (stereo not given),active: 2.69 µM,
CN(C)c1ccc(/C=C/C(=O)c2ccc(O)cc2)cc1,active: 0.213 µM,
CCN(Cc1cccc(S(=O)(=O)O)c1)c1ccc(C(=C2C=CC(=[N+](CC)Cc3cccc(S(=O)(=O)O)c3)C=C2)c2ccc(O)cc2S(=O)(=O)O)cc1,active: 9.53 µM,
O=C(c1cc(S(=O)(=O)N2CCN(c3ccccc3)CC2)ccc1Cl)N1CCCC(C(F)(F)F)C1 (stereo not given),,inactive: 1.73%
Cc1ccc(C(=O)Oc2cc(N)n(S(=O)(=O)c3ccc(F)cc3)n2)cc1,,inactive: -16.6%

SMILES,Potency,"activity change, negative = inhibition"
Cc1cc(=O)[nH]c(N/N=C/c2cc(C)n(CC(F)(F)F)c2C)n1,,inactive: -6.82%
Nc1ccc(-c2cc3ccccc3oc2=O)cc1,active: 8.49 µM,
COc1cc(OC)c(/C=C/c2cc3c4ccccc4ccc3[n+](C)c2)c(OC)c1,active: 6.75 µM,
Nc1c(Cl)ncnc1N/N=C/c1ccccn1,"inconclusive: 9.53 µM [inhibitor, partial curve]",
O=C(c1cc(COc2ccc3ncccc3c2)on1)N1CCCCCC1,"inconclusive: 16.9 µM [inhibitor, partial curve]",
CCOC(=O)N1CCc2c(sc(NC(=O)c3ccc(S(=O)(=O)N4CCCC4)cc3)c2C#N)C1,,inactive: -28.1%
Nc1nc(F)nc2c1ncn2[C@@H]1O[C@H](CO)[C@@H](O)[C@@H]1O,,inactive: -1.8%
CC(C)CCNC(=O)C(c1ccncc1)N(Cc1cccs1)C(=O)Cn1nnc(-c2ccc(F)cc2)n1 (stereo not given),,inactive: -2.61%
COc1ccc(/C=C2\SC(=O)N(CCCC(=O)Nc3cc(Cl)ccc3C(=O)O)C2=O)cc1,active: 12 µM,
O=C(Nc1ccc(Br)cc1)c1cccc(S(=O)(=O)Nc2cnc3ccccc3c2)c1,"inconclusive: 26.9 µM [inhibitor, single point]",
O=C(NCc1cccs1)c1nc2c(nnn2Cc2ccccc2Cl)c(=O)[nH]1,"inconclusive: 37.9 µM [inhibitor, single point]",
N#Cc1c(NC(=O)CSc2ncn[nH]2)sc2c1CCCCC2,active: 9.53 µM,
COc1ccc(-c2nc(CSCC(=O)N3CCN(c4ccc(OC)cc4)CC3)c(C)o2)cc1,,inactive: -13.8%
Cc1ccc(C(=O)Nc2nc(-c3ccccn3)cs2)cc1S(=O)(=O)N1CCOCC1,active: 10.7 µM,
CCCC(=O)NC(c1cccs1)c1cc(Cl)c2cccnc2c1O (stereo not given),,inactive: 0.553%
COc1ccc(C(=O)Nc2ccc(Cl)c(S(=O)(=O)Nc3ccccc3OC)c2)cc1,"inconclusive: 16.9 µM [inhibitor, partial curve]",
Cc1ccc(C(=O)NNC(=O)CCCN2C(=O)/C(=C/c3ccccc3Cl)SC2=S)cc1,"inconclusive: 9.53 µM [inhibitor, partial curve]",
S=C(NN=Cc1ccccn1)N(Cc1ccccn1)Cc1ccccn1,"inconclusive: 26.9 µM [inhibitor, single point]",
CC(=O)c1sc(NC(=O)C2(F)C(F)(F)C(F)(F)C(F)(F)C(F)(F)C2(F)F)nc1C,"inconclusive: 19 µM [inhibitor, partial curve]",
CCN1/C(=C/C=C/c2sc3ccccc3[n+]2CC)Sc2ccccc21,"inconclusive: 16.9 µM [inhibitor, partial curve]",
O=C(Nc1cccc(S(=O)(=O)Nc2ccc(Cl)cc2)c1)c1ccc(Cl)nc1,,inactive: -16.4%
CC1CN(S(=O)(=O)c2cc(C(=O)NCCC3=CCCCC3)ccc2Cl)CC(C)O1 (stereo not given),"inconclusive: 23.9 µM [inhibitor, partial curve]",

# Looked up by compound from the list above (two):
SMILES,Potency,"activity change, negative = inhibition"
CCN1/C(=C/C=C/c2sc3ccccc3[n+]2CC)Sc2ccccc21,"inconclusive: 16.9 µM [inhibitor, partial curve]",
Cc1cc(=O)[nH]c(N/N=C/c2cc(C)n(CC(F)(F)F)c2C)n1,,inactive: -6.82%
